Test results reported in patent US20150376252A1.
These are yes or no findings as the source states them, for the method shown. Some results given as binding are weak or reduced against the parent protein; the word gives no strength. Sequences can lack the tags named with a protein.

Columns and labels:
[1] = biological target: T1, Tspan12-YFP (human Tspan12 with YFP at the C-terminus) (human) (UniProt O95859); experiment: BRET in COS-1 cells (FIG. 6D)
T1 sequence (looked up): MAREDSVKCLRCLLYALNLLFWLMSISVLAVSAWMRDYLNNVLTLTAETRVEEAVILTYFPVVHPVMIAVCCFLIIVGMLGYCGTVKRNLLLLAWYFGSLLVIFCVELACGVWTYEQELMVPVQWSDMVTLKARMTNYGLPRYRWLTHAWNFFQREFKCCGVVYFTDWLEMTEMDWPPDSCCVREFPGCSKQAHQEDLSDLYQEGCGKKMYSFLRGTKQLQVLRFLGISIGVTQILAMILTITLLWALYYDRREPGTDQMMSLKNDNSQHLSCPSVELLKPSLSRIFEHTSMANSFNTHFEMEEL

[2] = biological target: T1, Tspan12-YFP (human Tspan12 with YFP at the C-terminus) (human); experiment: static BRET in transfected COS-1 cells

binding [1]: binds | binding [2]: binds
B1: Tspan12-Rlu (human Tspan12 with Renilla luciferase at the C-terminus) (protein, UniProt O95859 1-305, looked up, not shown: large carriers)
chain: MAREDSVKCLRCLLYALNLLFWLMSISVLAVSAWMRDYLNNVLTLTAETRVEEAVILTYFPVVHPVMIAVCCFLIIVGMLGYCGTVKRNLLLLAWYFGSLLVIFCVELACGVWTYEQELMVPVQWSDMVTLKARMTNYGLPRYRWLTHAWNFFQREFKCCGVVYFTDWLEMTEMDWPPDSCCVREFPGCSKQAHQEDLSDLYQEGCGKKMYSFLRGTKQLQVLRFLGISIGVTQILAMILTITLLWALYYDRREPGTDQMMSLKNDNSQHLSCPSVELLKPSLSRIFEHTSMANSFNTHFEMEEL
